# Values quoted from earlier work in patent publication US20080081826A1, “SYSTEM FOR EFFECTING WEIGHT LOSS” (priority 2006, published 2008).
# Some entries share one result that the patent states for a list of compounds. Some ranges recur; such a range may be that of the whole group of compounds.
# Conditions: literature; cited from earlier work
smiles,measurement,value
"CCCCCCCCCCC[C@H](C[C@H]1OC(=O)[C@H]1CCCCCC)OC(=O)[C@@H](CC(C)C)NC=O [orlistat, (2S,3S,5S)-5-[(S)-2-formamido-4-methylvaleryloxy]-2-hexyl-3-hydroxyhexadecanoic acid lactone]",weight loss of body weight for drug compared to placebo,5%-10%
